{"source": "the supplement of paper PMC8728848", "assay_in_all_cases": "glycan array binding signal (z-score within array); higher = stronger binding", "conditions_in_all_cases": "glycan notation: IUPAC condensed, linker removed", "key": {"Neu5Ac(a2-3)Gal": {"biological_target": "Neu5Ac(a2-3)Gal", "procedure,_shortened": "(§1)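 Columns mapping to the same glycan were averaged after glycan names were converted to IUPAC-condensed notation. The data come from 3228 arrays in the Consortium for Functional Glycomics database, limited to those with an available protein sequence. Binding is reported as a within-array Z-score averaged across arrays of one protein sequence and across linkers.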"}, "[1]": {"biological_target": "Neu5Ac(a2-3)Gal(b1-3)GalNAc", "procedure,_shortened": "as §1"}, "[2]": {"biological_target": "Neu5Ac(a2-3)Gal(b1-3)GalNAc(b1-3)Gal(a1-4)Gal(b1-4)Glc", "procedure,_shortened": "as §1"}, "[3]": {"biological_target": "Neu5Ac(a2-3)Gal(b1-3)GalNAc(b1-3)Gal(b1-4)GlcNAc", "procedure,_shortened": "as §1"}, "[4]": {"biological_target": "Neu5Ac(a2-3)Gal(b1-3)GalNAc(b1-4)[Neu5Ac(a2-3)]Gal(b1-4)Glc", "procedure,_shortened": "as §1"}, "[5]": {"biological_target": "Neu5Ac(a2-3)Gal(b1-3)GalNAc6S", "procedure,_shortened": "as §1"}, "[6]": {"biological_target": "Neu5Ac(a2-3)Gal(b1-3)GlcNAc", "procedure,_shortened": "as §1"}, "[7]": {"biological_target": "Neu5Ac(a2-3)Gal(b1-3)GlcNAc(b1-3)Gal(b1-3)GlcNAc", "procedure,_shortened": "as §1"}, "[8]": {"biological_target": "Neu5Ac(a2-3)Gal(b1-3)GlcNAc6S", "procedure,_shortened": "as §1"}, "[9]": {"biological_target": "Neu5Ac(a2-3)Gal(b1-3)[Fuc(a1-4)]GlcNAc", "procedure,_shortened": "as §1"}, "[10]": {"biological_target": "Neu5Ac(a2-3)Gal(b1-3)[Fuc(a1-4)]GlcNAc(b1-3)Gal(b1-3)[Fuc(a1-4)]GlcNAc", "procedure,_shortened": "as §1"}, "[11]": {"biological_target": "Neu5Ac(a2-3)Gal(b1-3)[Fuc(a1-4)]GlcNAc(b1-3)Gal(b1-4)[Fuc(a1-3)]GlcNAc", "procedure,_shortened": "as §1"}, "[12]": {"biological_target": "Neu5Ac(a2-3)Gal(b1-3)[Neu5Ac(a2-3)Gal(b1-4)]GlcNAc", "procedure,_shortened": "as §1"}, "[13]": {"biological_target": "Neu5Ac(a2-3)Gal(b1-3)[Neu5Ac(a2-6)]GalNAc", "procedure,_shortened": "as §1"}, "Neu5Ac(a2-3)Gal(b1-4)Glc": {"biological_target": "Neu5Ac(a2-3)Gal(b1-4)Glc", "procedure,_shortened": "as §1"}, "[14]": {"biological_target": "Neu5Ac(a2-3)Gal(b1-4)GlcNAc", "procedure,_shortened": "as §1"}, "[15]": {"biological_target": "Neu5Ac(a2-3)Gal(b1-4)GlcNAc(b1-2)Man(a1-3)[GlcNAc(b1-2)Man(b1-4)GlcNAc(b1-2)Man(a1-6)]Man(b1-4)GlcNAc(b1-4)GlcNAc", "procedure,_shortened": "as §1"}, "[16]": {"biological_target": "Neu5Ac(a2-3)Gal(b1-4)GlcNAc(b1-2)Man(a1-3)[Neu5Ac(a2-6)Gal(b1-4)GlcNAc(b1-2)Man(a1-6)]Man(b1-4)GlcNAc(b1-4)GlcNAc", "procedure,_shortened": "as §1"}, "[17]": {"biological_target": "Neu5Ac(a2-3)Gal(b1-4)GlcNAc(b1-3)Gal(b1-3)GlcNAc", "procedure,_shortened": "as §1"}, "[18]": {"biological_target": "Neu5Ac(a2-3)Gal(b1-4)GlcNAc(b1-3)Gal(b1-4)GlcNAc", "procedure,_shortened": "as §1"}, "[19]": {"biological_target": "Neu5Ac(a2-3)Gal(b1-4)GlcNAc(b1-3)Gal(b1-4)GlcNAc(b1-3)Gal(b1-4)GlcNAc", "procedure,_shortened": "as §1"}, "[20]": {"biological_target": "Neu5Ac(a2-3)Gal(b1-4)GlcNAc(b1-3)Gal(b1-4)[Fuc(a1-3)]GlcNAc", "procedure,_shortened": "as §1"}, "[21]": {"biological_target": "Neu5Ac(a2-3)Gal(b1-4)GlcNAc(b1-3)GalNAc", "procedure,_shortened": "as §1"}, "[22]": {"biological_target": "Neu5Ac(a2-3)Gal(b1-4)GlcNAc(b1-6)[Gal(b1-3)]GalNAc", "procedure,_shortened": "as §1"}, "[23]": {"biological_target": "Neu5Ac(a2-3)Gal(b1-4)GlcNAc(b1-6)[Neu5Ac(a2-3)Gal(b1-3)]GalNAc", "procedure,_shortened": "as §1"}, "[24]": {"biological_target": "Neu5Ac(a2-3)Gal(b1-4)GlcNAc6S", "procedure,_shortened": "as §1"}, "[25]": {"biological_target": "Neu5Ac(a2-3)Gal(b1-4)[Fuc(a1-3)]GlcNAc", "procedure,_shortened": "as §1"}, "[26]": {"biological_target": "Neu5Ac(a2-3)Gal(b1-4)[Fuc(a1-3)]GlcNAc(b1-3)Gal", "procedure,_shortened": "as §1"}, "[27]": {"biological_target": "Neu5Ac(a2-3)Gal(b1-4)[Fuc(a1-3)]GlcNAc(b1-3)Gal(b1-4)GlcNAc", "procedure,_shortened": "as §1"}, "[28]": {"biological_target": "Neu5Ac(a2-3)Gal(b1-4)[Fuc(a1-3)]GlcNAc(b1-3)Gal(b1-4)[Fuc(a1-3)]GlcNAc(b1-3)Gal(b1-4)[Fuc(a1-3)]GlcNAc", "procedure,_shortened": "as §1"}, "[29]": {"biological_target": "Neu5Ac(a2-3)Gal(b1-4)[Fuc(a1-3)]GlcNAc(b1-3)GalNAc", "procedure,_shortened": "as §1"}, "[30]": {"biological_target": "Neu5Ac(a2-3)Gal(b1-4)[Fuc(a1-3)]GlcNAc(b1-6)[Gal(b1-3)]GalNAc", "procedure,_shortened": "as §1"}, "[31]": {"biological_target": "Neu5Ac(a2-3)Gal(b1-4)[Fuc(a1-3)]GlcNAc(b1-6)[Neu5Ac(a2-3)Gal(b1-3)]GalNAc", "procedure,_shortened": "as §1"}, "[32]": {"biological_target": "Neu5Ac(a2-3)Gal(b1-4)[Fuc(a1-3)]GlcNAc6S", "procedure,_shortened": "as §1"}, "[33]": {"biological_target": "Neu5Ac(a2-3)Gal6S(b1-4)GlcNAc", "procedure,_shortened": "as §1"}, "[34]": {"biological_target": "Neu5Ac(a2-3)Gal6S(b1-4)[Fuc(a1-3)]GlcNAc", "procedure,_shortened": "as §1"}, "Neu5Ac(a2-3)GalNAc": {"biological_target": "Neu5Ac(a2-3)GalNAc", "procedure,_shortened": "as §1"}, "[35]": {"biological_target": "Neu5Ac(a2-3)GalNAc(b1-4)GlcNAc", "procedure,_shortened": "as §1"}, "[36]": {"biological_target": "Neu5Ac(a2-3)[GalNAc(b1-4)]Gal(b1-4)Glc", "procedure,_shortened": "as §1"}, "[37]": {"biological_target": "Neu5Ac(a2-3)[GalNAc(b1-4)]Gal(b1-4)GlcNAc", "procedure,_shortened": "as §1"}, "[38]": {"biological_target": "Neu5Ac(a2-3)[Neu5Ac(a2-6)]GalNAc", "procedure,_shortened": "as §1"}, "Neu5Ac(a2-6)Gal": {"biological_target": "Neu5Ac(a2-6)Gal", "procedure,_shortened": "as §1"}}, "note": "Some of the results follow."}
{"binder": "Adiponectin (Rattus norvegicus), Q8K3R4 (protein) MLLLQALLFLLILPSHEGITATEGPGALVPPPKETCAGWMAGIPGYPGHNGIPGRDGRDGTPGEKGEKGDAGVLGPKGDPGDAGMTGAEGPRGFPGTPGRKGEPGEAAYMYHSAFSVGLETRVTVPNVPIRFTKIFYNQQNHYDGSTGKFHCNIPGLYYFSYHITVYMKDVKVSLFKKDKAVLFTYDQYQEKNVDQASGSMLLHLEVGDQVWLQVYGEGDNNGLYADNVNDSTFTGFLLYHDTN", "values": [{"measurement": "glycan array binding signal (z-score)", "setting": "Neu5Ac(a2-3)Gal", "result": 0.212}, {"measurement": "glycan array binding signal (z-score)", "setting": "[1]", "result": -0.54}, {"measurement": "glycan array binding signal (z-score)", "setting": "[2]", "result": -0.894}, {"measurement": "glycan array binding signal (z-score)", "setting": "[3]", "result": -0.141}, {"measurement": "glycan array binding signal (z-score)", "setting": "[4]", "result": -1.17}, {"measurement": "glycan array binding signal (z-score)", "setting": "[5]", "result": -0.137}, {"measurement": "glycan array binding signal (z-score)", "setting": "[6]", "result": -0.478}, {"measurement": "glycan array binding signal (z-score)", "setting": "[7]", "result": -0.468}, {"measurement": "glycan array binding signal (z-score)", "setting": "[8]", "result": 0.105}, {"measurement": "glycan array binding signal (z-score)", "setting": "[9]", "result": 0.479}, {"measurement": "glycan array binding signal (z-score)", "setting": "[10]", "result": -1.19}, {"measurement": "glycan array binding signal (z-score)", "setting": "[11]", "result": -0.843}, {"measurement": "glycan array binding signal (z-score)", "setting": "[12]", "result": 2.28}, {"measurement": "glycan array binding signal (z-score)", "setting": "[13]", "result": 0.091}, {"measurement": "glycan array binding signal (z-score)", "setting": "Neu5Ac(a2-3)Gal(b1-4)Glc", "result": 0.152}, {"measurement": "glycan array binding signal (z-score)", "setting": "[14]", "result": -0.179}, {"measurement": "glycan array binding signal (z-score)", "setting": "[15]", "result": 0.379}, {"measurement": "glycan array binding signal (z-score)", "setting": "[16]", "result": -0.409}, {"measurement": "glycan array binding signal (z-score)", "setting": "[17]", "result": 0.26}, {"measurement": "glycan array binding signal (z-score)", "setting": "[18]", "result": -0.846}, {"measurement": "glycan array binding signal (z-score)", "setting": "[19]", "result": -0.87}, {"measurement": "glycan array binding signal (z-score)", "setting": "[20]", "result": -0.42}, {"measurement": "glycan array binding signal (z-score)", "setting": "[21]", "result": 0.239}, {"measurement": "glycan array binding signal (z-score)", "setting": "[22]", "result": -0.442}, {"measurement": "glycan array binding signal (z-score)", "setting": "[23]", "result": -0.944}, {"measurement": "glycan array binding signal (z-score)", "setting": "[24]", "result": 0.921}, {"measurement": "glycan array binding signal (z-score)", "setting": "[25]", "result": 0.007}, {"measurement": "glycan array binding signal (z-score)", "setting": "[26]", "result": -0.168}, {"measurement": "glycan array binding signal (z-score)", "setting": "[27]", "result": 1.83}, {"measurement": "glycan array binding signal (z-score)", "setting": "[28]", "result": -0.687}, {"measurement": "glycan array binding signal (z-score)", "setting": "[29]", "result": 1.34}, {"measurement": "glycan array binding signal (z-score)", "setting": "[30]", "result": -0.125}, {"measurement": "glycan array binding signal (z-score)", "setting": "[31]", "result": -0.662}, {"measurement": "glycan array binding signal (z-score)", "setting": "[32]", "result": 0.564}, {"measurement": "glycan array binding signal (z-score)", "setting": "[33]", "result": -0.728}, {"measurement": "glycan array binding signal (z-score)", "setting": "[34]", "result": 1.6}, {"measurement": "glycan array binding signal (z-score)", "setting": "Neu5Ac(a2-3)GalNAc", "result": -0.478}, {"measurement": "glycan array binding signal (z-score)", "setting": "[35]", "result": 0.48}, {"measurement": "glycan array binding signal (z-score)", "setting": "[36]", "result": -0.609}, {"measurement": "glycan array binding signal (z-score)", "setting": "[37]", "result": -0.816}, {"measurement": "glycan array binding signal (z-score)", "setting": "[38]", "result": -0.522}, {"measurement": "glycan array binding signal (z-score)", "setting": "Neu5Ac(a2-6)Gal", "result": -0.739}]}
